{"source": "paper PMC3006384", "about": "“Phosphorylation of Mouse Immunity-Related GTPase (IRG) Resistance Proteins Is an Evasion Strategy for Virulent Toxoplasma gondii” (PLoS Biology, 2010)", "target": "recombinant Irga6-T108D (bacterially expressed) (mouse) (UniProt Q9QZ85)", "test": "light scattering; GTP-dependent oligomerisation of recombinant Irga6 monitored by conventional light scattering, as described earlier (ref. 16); both purified", "note": "Results are given in words; binding and its absence hold for the method and conditions named. Some results given as binding are weak or reduced against the parent protein; the word gives no strength.", "data": [{"binder": "recombinant Irga6-T108D (bacterially expressed) (protein, UniProt Q9QZ85 1-413) MGQLFSSPKSDENNDLPSSFTGYFKKFNTGRKIISQEILNLIELRMRKGNIQLTNSAISDALKEIDSSVLNVAVTGETGSGKSSFINTLRGIGNEEEGAAKTGVVEVDMERHPYKHPNIPNVVFWDLPGIGSTNFPPNTYLEKMKFYEYDFFIIISATRFKKNDIDIAKAISMMKKEFYFVRTKVDSDITNEADGKPQTFDKEKVLQDIRLNCVNTFRENGIAEPPIFLLSNKNVCHYDFPVLMDKLISDLPIYKRHNFMVSLPNITDSVIEKKRQFLKQRIWLEGFAADLVNIIPSLTFLLDSDLETLKKSMKFYRTVFGVDETSLQRLARDWEIEVDQVEAMIKSPAVFKPTDEETIQERLSRYIQEFCLANGYLLPKNSFLKEIFYLKYYFLDMVTEDAKTLLKEICLRN", "values": [{"measurement": "binding", "value": "binds weakly"}]}]}
